The results in this text go back to PubChem BioAssay AID445 (National Center for Advancing Translational Sciences (NCATS), 2006).

As a reminder, the AC50 is the concentration giving half of the maximal activity seen.

This is one part of the list. These are further read-outs of the screen, such as a control signal, another cell line or another target. No call is given for them. The list favours compounds with an active or inconclusive main result. Words in brackets tell the shape of the fitted curve; partial curves, single points and poor fits give uncertain potencies.

This test in a line: IkB Signaling. As to conditions: ABC-DLBCL IkBa-CBG/CBR dual luciferase ratio (green luciferase fused to IkBa over red control in OCI-Ly3 lymphoma cells), 4 h. In outline: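 Luminescence ratio of IκBα-fused green versus native red beetle luciferase in OCI-Ly3 cells, 4 h post-doxycycline with compound; red signal alone, scaled from basal (0%) to zero light (-100%), flagged nonspecific or cytotoxic effects.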
Where [1] appears, read: measured here: IkB-luc green channel.
Setting [2] is: measured here: control luc red channel.
The mark [3] stands for this setting: measured here: control luc red channel unless noted.

On to `COc1ccc(O)c(-c2cc(-c3cccc(Br)c3)n[nH]2)c1`, for which the AC50 is 39.8 µM [falling, single point] under setting [1] and 25.1 µM [falling, single point] under setting [2].
Regarding `O=C(CCS(=O)(=O)c1ccc2c(c1)NC(=O)CO2)Nc1cccc(C(F)(F)F)c1`, under setting [3], the AC50 was 0.01 µM [falling, full curve, poor fit].
As for `COc1cc(C2c3c(-c4cc(Cl)c(C)cc4O)n[nH]c3C(=O)N2Cc2cccnc2)ccc1O` (centres undefined), the AC50 under setting [3] is 10 µM [falling, partial curve].
Take `COc1ccc(NC(=O)Cn2nnc(C(=O)NCc3ccccc3Cl)c2N)cc1Cl`: the AC50 under setting [3] is 0.0316 µM [falling, full curve, poor fit].
`O=C(c1ccc2c(Cl)c3c(nc2c1)CCCC3)N1CCN(c2cccc(Cl)c2)CC1`: the concentration at half-maximal activity (AC50) under setting [3] is 6.31 µM [falling, partial curve].
For `O=c1nc2s/c(=C\c3ccco3)c(=O)n2nc1Cc1ccccc1`, the AC50 under setting [3] was 3.98 µM [falling, full curve].
Consider `Cc1ccc(-c2c(C(=O)NCCc3ccc(Cl)cc3)oc(=O)c3ccccc23)cc1`, for which, under setting [3], the concentration at half-maximal activity (AC50) was 3.98 µM [falling, full curve].
For `Cc1cccc(N2C(=O)CCSC23C(=O)N(Cc2ccc(F)cc2)c2ccccc23)c1` (centres undefined), the AC50 under setting [3] is 20 µM [falling, single point].
As for `COCCc1nn2c(=O)cc(COC(=O)c3ccc(C(C)(C)C)cc3)nc2s1`, the half-maximal activity concentration (AC50) under setting [3] was 31.6 µM [falling, single point].
For the molecule `COc1ccc(CNc2ncnc3c2c(-c2ccccc2)cn3-c2ccccc2)cc1`, the AC50 under setting [3] was 5.01 µM [rising, single point].
Same read-out and setting: the value for `Fc1cccc(Cl)c1Cn1nnc2c(-n3ccnc3)ncnc21` was 25.1 µM [falling, partial curve].
`Cc1ccc(-c2nc(SCc3ccc(Br)cc3)n3[nH]c(=O)cc3n2)cc1`: the AC50 under setting [3] was 25.1 µM [rising, single point].
As for `CN1CC(=O)N(CC(=O)Nc2ccc(Cl)c(C(F)(F)F)c2)c2ccccc2C1=O`, the AC50 under setting [3] is 0.0251 µM [falling, full curve, poor fit].
Regarding `O=C1c2ccc(Oc3ccc4c(c3)C(=O)N(CCCCO)C4=O)cc2C(=O)N1CCCCO`, under setting [3], the AC50 is 39.8 µM [falling, single point].
The same measure, in the same setting: under `CCOC(=O)c1ccccc1NC(=O)Cn1c(=O)n(Cc2ccccc2)c(=O)c2c(C)c(C)sc21` stands 0.794 µM [rising, full curve, poor fit]; under `O=C1C(c2[nH]c3ccccc3c2O)=Nc2ccccc21`, 50.1 µM [rising, partial curve, poor fit] [measured here: IkB-luc green channel].
Consider `CCC(=O)Oc1ccc(-c2nc3ccccc3c(=O)o2)cc1`, for which the concentration at half-maximal activity (AC50) under setting [3] is 15.8 µM [falling, partial curve].
Same read-out and setting: under `CCN(c1ccc(Cl)cc1)S(=O)(=O)c1nnc(NC(=O)C(C)C)s1` stands 10 µM [falling, partial curve]; under `Cc1ccc(-n2ncc(C(=O)N3CCN(Cc4ccccc4)CC3)c2C2CCN(C(=O)OC(C)(C)C)CC2)c(C)c1`, 31.6 µM [falling, partial curve].
Still for that read-out and setting: the value for `COc1cc(OC)cc(C(=O)Nc2cccc(N3CCCC3)c2)c1` was 12.6 µM [falling, partial curve].
As for `CC(C)(C)OC(=O)N1CCC(c2c(C(=O)NCc3ccco3)cnn2-c2ccc(F)cc2)CC1`, the AC50 under setting [3] was 12.6 µM [falling, partial curve].
Regarding `COc1ccc(-c2nnc(SCC(=O)Nc3ccc(F)cc3)s2)cc1`, the AC50 under setting [3] is 6.31 µM [falling, single point].
`Cc1cc(N2CCN(C(c3ccccc3)c3ccc(Cl)cc3)CC2)n2ncnc2n1` (centres undefined): the half-maximal activity concentration (AC50) is 39.8 µM [falling, single point] under setting [1] and 25.1 µM [falling, partial curve] under setting [2].
In the case of `CC(=O)c1ccc(NC(=O)NCCc2c[nH]c3ccccc23)cc1`, the half-maximal activity concentration (AC50) under setting [3] was 20 µM [falling, single point].
As for `CC(=O)N(c1cccc(C)c1)C1SC(=O)N(c2ccccc2)C1=O` (centres undefined), the AC50 under setting [3] was 15.8 µM [falling, partial curve].
For `Cc1cccc(-c2nc3scc(CCNC(=O)c4ccccc4Cl)n3n2)c1`, the AC50 under setting [3] was 31.6 µM [falling, partial curve].
As for `CC(C)c1nn2c(=O)cc(COC(=O)c3ccc(NC(=O)CCc4ccccc4)cc3)nc2s1`, the AC50 under setting [3] was 5.01 µM [falling, partial curve].
For the molecule `CCOC(=O)Cn1c(=O)oc2cc(S(=O)(=O)Nc3c(C)cc(C)cc3C)ccc21`, the AC50 is 31.6 µM [falling, partial curve] under setting [1] and 6.31 µM [falling, partial curve] under setting [2].
With `CC1CCN(CCNC(=O)c2ccc(Cn3c(SCc4ccccc4)nc4cccnc43)cc2)CC1`, the AC50 under setting [3] was 20 µM [falling, partial curve, poor fit].
Same read-out and setting: the value for `COc1ccccc1CNC(=O)c1cccc(Nc2nc3ccccc3n3nnnc23)c1` was 39.8 µM [falling, single point]; that for `Cc1ccc2nc(N3CCN(c4cccc(C)c4C)CC3)c3nnnn3c2c1` was 31.6 µM [falling, partial curve]; that for `CCC1CN(C(=O)N2CCC(C(=O)NCc3cccs3)CC2)c2cc(C)ccc2O1` (centres undefined) was 25.1 µM [falling, partial curve].
With `O=C(CC1(O)C(=O)N(CCc2ccccc2)c2ccc(Br)cc21)c1ccccc1O` (centres undefined), under setting [3], the AC50 was 31.6 µM [falling, single point].
`CCOc1ccc(-c2cc(C(=O)NCc3ccccc3)c3c(-c4ccc(CC)cc4)[nH]nc3n2)cc1`: under setting [3], the AC50 was 20 µM [rising, partial curve].
As to `CCCn1c2ccccc2c2cc(C(=O)O)ccc21`, under setting [3], the AC50 was 12.6 µM [falling, partial curve].
Turning to `CC(C)(C)C(=O)Nc1c(C(=O)N2CCN(c3ccc(F)cc3)CC2)oc2ccccc12`, the AC50 under setting [3] was 12.6 µM [falling, partial curve].
As for `CCn1c(CN2CCOCC2)nc2cc(NC(=O)c3cc(OC)c(OC)c(OC)c3)ccc21`, the AC50 under setting [3] was 31.6 µM [falling, partial curve].
Consider `CSc1nn(Cc2ccc(Br)cc2)c(N(C(C)=O)C(C)=O)c1S(=O)(=O)c1ccccc1`, for which the half-maximal activity concentration (AC50) under setting [3] was 20 µM [falling, partial curve].
On the same count and under the same terms, the value for `O=c1c2ccccc2nc(-c2cccc(Cl)c2)n1O` was 12.6 µM [falling, partial curve]; that for `COc1ccc(-c2cc(C(=O)NCc3ccccc3)c3c(-c4ccccc4)[nH]nc3n2)cc1` was 0.794 µM [falling, full curve]; that for `CC1CCN(C(=O)Cn2ncc3c4ccccc4n(Cc4ccc(Cl)cc4)c3c2=O)CC1` was 7.94 µM [falling, partial curve].
Regarding `CCC(c1nnnn1Cc1ccco1)N(CCc1ccccc1)Cc1cc2ccc(OC)cc2[nH]c1=O` (centres undefined), the AC50 is 7.94 µM [falling, partial curve] under setting [1] and 10 µM [falling, partial curve] under setting [2].
As to `CCOc1ccc(NC(=O)c2ccc(F)c(S(=O)(=O)NCc3ccc4c(c3)OCO4)c2)cc1`, under setting [3], the AC50 was 25.1 µM [falling, single point].
On to `Cc1oc2ncn(CC(C)C)c(=O)c2c1C(=O)NCCCN(Cc1ccccc1)C(C)C`, for which the concentration at half-maximal activity (AC50) under setting [3] is 6.31 µM [rising, partial curve].
Regarding `CCOc1ccc(NC(=O)CSc2nnc(-c3ccc(C)cc3)c(-c3ccc(C)cc3)n2)cc1`, under setting [3], the AC50 was 10 µM [falling, partial curve].
Turning to `O=C(Cn1c(=O)nc(-c2ccccc2)c2ccccc21)NCCCc1ccccc1`, under setting [3], the half-maximal activity concentration (AC50) was 15.8 µM [falling, single point].
Turning to `COc1ccc(CCNC(=O)CS(=O)Cc2nc(-c3ccc(C)cc3)oc2C)c(OC)c1` (centres undefined), the AC50 under setting [3] is 39.8 µM [falling, single point].
For the molecule `O=C(CSc1nnc(SCc2ccc(Cl)cc2)s1)N1CCOCC1`, the half-maximal activity concentration (AC50) under setting [3] was 25.1 µM [falling, partial curve].
As for `COc1ccc(-n2c(COc3ccccc3)nnc2SCc2ccc(C#N)cc2)cc1`, the AC50 under setting [3] was 15.8 µM [falling, partial curve].
`Cc1ccccc1N1CCN(S(=O)(=O)c2nnc(NC(=O)c3ccc(Cl)cc3)s2)CC1`: the AC50 under setting [3] is 12.6 µM [falling, partial curve].
Same read-out and setting: the value for `CCSc1ncc(Cl)c(C(=O)N2CCN(c3ccc(OC)cc3)CC2)n1` was 20 µM [falling, partial curve].
Still for that read-out and setting: under `C=Cc1ccc(Cn2c(=O)n(-c3cccc(C)c3)c(=O)c3c2c2cc(C)ccc2n3C)cc1` stands 31.6 µM [falling, single point]; under `CCN(CC)CCCNC(=O)c1ccc2nc(CCc3ccccc3)oc2c1`, 0.00501 µM [falling, full curve, poor fit]; under `Cc1ccc(S(=O)(=O)c2c(C)nn(-c3ccccc3)c2OC(=O)c2ccccc2F)cc1`, 1.26 µM [falling, full curve, poor fit].
On the same count and under the same terms, under `CCN(CC)c1ccc(NC(=O)C2COc3ccc(OC)cc3C2)c(C)c1` (centres undefined) stands 15.8 µM [rising, partial curve]; under `COc1ccccc1-c1cc(C(=O)Nc2cc(Cl)ccc2O)no1`, 0.0126 µM [falling, full curve]; under `O=C(Nc1ccc(F)cc1F)c1ccc2c(=O)n3c(nc2c1)CCCCC3`, 12.6 µM [falling, partial curve].
Regarding `Cc1c(C(=O)N(C)c2cccc(C(F)(F)F)c2)sc2nc3n(c(=O)c12)CCCCC3`, the AC50 under setting [3] is 12.6 µM [falling, partial curve].
Take `CCOc1ccc(CNC(=O)c2cnc3sc(N4CCC(C)CC4)nn3c2=O)cc1OC`: the AC50 under setting [3] was 5.01 µM [rising, partial curve, poor fit].
As for `COc1cccc(-n2c(=O)c3sc4ccccc4c3n(CC(=O)Nc3cccc(Cl)c3)c2=O)c1`, the AC50 under setting [3] was 1.58 µM [falling, partial curve].
